Our source for the binding values is publication PMC10374059.

Chains of the proteins cited; added tags and fusions are not shown. Lines headed by an entry give the natural chain unless they say otherwise; changes in a name come on top.
UniProt Q57XN5: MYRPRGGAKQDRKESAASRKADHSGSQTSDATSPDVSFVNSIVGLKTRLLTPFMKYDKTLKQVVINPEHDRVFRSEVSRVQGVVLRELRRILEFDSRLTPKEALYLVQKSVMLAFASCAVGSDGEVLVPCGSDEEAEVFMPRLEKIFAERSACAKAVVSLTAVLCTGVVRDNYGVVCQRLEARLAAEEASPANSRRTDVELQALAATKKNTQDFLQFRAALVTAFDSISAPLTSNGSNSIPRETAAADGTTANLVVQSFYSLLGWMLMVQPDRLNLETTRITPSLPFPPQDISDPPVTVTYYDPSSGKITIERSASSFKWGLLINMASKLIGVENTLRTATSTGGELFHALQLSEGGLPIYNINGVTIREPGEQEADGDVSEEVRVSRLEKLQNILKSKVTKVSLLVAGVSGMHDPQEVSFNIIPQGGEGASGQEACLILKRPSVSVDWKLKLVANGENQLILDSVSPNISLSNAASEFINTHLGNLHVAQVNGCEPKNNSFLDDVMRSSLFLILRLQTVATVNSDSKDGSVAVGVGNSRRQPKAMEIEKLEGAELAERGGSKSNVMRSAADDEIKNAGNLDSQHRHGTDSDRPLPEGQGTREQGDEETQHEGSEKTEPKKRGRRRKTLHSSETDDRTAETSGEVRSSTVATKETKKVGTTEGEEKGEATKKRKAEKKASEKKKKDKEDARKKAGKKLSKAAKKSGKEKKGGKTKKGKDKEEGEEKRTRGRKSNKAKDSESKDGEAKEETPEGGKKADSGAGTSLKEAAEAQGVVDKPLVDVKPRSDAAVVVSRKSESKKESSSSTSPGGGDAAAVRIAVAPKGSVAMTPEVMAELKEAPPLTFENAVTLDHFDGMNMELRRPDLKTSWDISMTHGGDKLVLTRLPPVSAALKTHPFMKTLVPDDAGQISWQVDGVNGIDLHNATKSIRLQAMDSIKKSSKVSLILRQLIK
UniProt Q581S0: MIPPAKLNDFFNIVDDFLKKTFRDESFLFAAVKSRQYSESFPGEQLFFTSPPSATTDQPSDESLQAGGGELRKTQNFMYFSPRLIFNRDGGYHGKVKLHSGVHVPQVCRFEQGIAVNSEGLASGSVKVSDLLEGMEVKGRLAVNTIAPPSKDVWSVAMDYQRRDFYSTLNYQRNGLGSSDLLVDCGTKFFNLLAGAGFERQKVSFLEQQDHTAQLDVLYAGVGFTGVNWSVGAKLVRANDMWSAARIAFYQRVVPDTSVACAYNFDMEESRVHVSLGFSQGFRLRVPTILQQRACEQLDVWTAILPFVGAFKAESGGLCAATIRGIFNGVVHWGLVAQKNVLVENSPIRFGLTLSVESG
UniProt Q381H4: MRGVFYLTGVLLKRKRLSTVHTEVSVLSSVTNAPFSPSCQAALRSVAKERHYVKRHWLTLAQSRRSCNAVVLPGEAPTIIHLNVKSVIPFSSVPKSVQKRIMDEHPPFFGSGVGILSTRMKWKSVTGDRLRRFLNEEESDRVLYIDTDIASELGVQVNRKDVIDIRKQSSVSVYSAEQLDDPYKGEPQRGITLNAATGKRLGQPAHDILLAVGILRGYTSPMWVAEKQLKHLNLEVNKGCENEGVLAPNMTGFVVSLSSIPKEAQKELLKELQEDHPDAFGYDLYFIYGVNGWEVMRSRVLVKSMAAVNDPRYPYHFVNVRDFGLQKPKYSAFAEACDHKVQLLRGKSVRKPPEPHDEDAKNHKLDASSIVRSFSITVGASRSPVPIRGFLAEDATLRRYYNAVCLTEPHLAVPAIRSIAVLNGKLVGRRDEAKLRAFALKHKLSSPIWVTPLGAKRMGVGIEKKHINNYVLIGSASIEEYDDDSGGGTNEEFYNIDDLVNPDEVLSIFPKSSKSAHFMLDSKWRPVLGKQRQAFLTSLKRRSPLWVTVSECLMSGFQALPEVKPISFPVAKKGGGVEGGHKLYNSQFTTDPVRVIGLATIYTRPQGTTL
UniProt Q57W28: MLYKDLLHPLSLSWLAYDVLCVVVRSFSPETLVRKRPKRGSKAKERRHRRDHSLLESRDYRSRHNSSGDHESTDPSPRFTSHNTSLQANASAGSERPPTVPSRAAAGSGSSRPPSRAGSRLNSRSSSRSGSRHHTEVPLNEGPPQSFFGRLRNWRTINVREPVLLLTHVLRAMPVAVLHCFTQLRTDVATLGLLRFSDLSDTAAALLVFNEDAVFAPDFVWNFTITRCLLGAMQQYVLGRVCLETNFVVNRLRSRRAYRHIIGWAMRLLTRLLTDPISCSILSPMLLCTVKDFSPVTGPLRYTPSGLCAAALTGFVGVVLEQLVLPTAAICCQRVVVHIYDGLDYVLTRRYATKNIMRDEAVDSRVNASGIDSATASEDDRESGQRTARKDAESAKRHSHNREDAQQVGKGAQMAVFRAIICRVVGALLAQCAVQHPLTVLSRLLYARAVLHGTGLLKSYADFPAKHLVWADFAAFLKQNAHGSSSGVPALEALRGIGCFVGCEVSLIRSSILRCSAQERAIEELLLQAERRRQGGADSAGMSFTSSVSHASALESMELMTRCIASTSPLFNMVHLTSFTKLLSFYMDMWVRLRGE
UniProt Q57WR0: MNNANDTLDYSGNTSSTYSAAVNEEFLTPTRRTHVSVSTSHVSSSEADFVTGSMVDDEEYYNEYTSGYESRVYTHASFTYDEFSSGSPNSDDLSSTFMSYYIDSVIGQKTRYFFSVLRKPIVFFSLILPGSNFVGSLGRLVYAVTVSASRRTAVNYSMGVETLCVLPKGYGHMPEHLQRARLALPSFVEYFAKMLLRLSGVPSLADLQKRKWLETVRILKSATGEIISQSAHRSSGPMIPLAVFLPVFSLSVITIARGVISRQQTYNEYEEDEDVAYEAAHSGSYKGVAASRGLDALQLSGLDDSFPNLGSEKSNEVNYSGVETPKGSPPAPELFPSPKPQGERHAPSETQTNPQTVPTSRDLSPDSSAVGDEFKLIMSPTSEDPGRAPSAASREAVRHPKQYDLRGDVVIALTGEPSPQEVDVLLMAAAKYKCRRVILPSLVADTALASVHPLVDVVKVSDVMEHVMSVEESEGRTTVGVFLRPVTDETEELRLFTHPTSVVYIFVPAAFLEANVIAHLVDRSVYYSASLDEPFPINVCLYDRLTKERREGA

The target in this assay is YFP tagged version of TAC102 (T. brucei) (UniProt Q57XN5). Nature of the assay: affinity purification with mass spectrometry; YFP-TAC102 from PCF cells; cytoskeletons extracted and sonicated, 0.2 M NaCl step, pellet in 0.05% Nonidet P-40 in PBS sonicated again, dynabeads crosslinked with anti-GFP antibody; eluate against flow-through.

Results are given in words; binding and its absence hold for the method and conditions named. In cells and extracts the contact can be indirect. These calls come from enrichment with a bait or labelling near it, and not all partners need be listed.

Consider TAC40 (from UniProt Q581S0), for which the binding entry is given as “binds”. Take “TbKAP68 (Tb927.11.16120), endogenous (from UniProt Q381H4)”: the binding result is “binds”.

Take TAC65 (from UniProt Q57W28): the binding result is reported as “binds”.

TAC60 (from UniProt Q57WR0): the binding entry is reported as “binds”.
